Test results published in paper PMC9363125.
Results are given in words; binding and its absence hold for the method and conditions named. Binding calls can cover weak binding; strength is not graded here. Tags and fused reporters may be left off the sequences shown.

How the values were obtained:
[1] = target: Frizzled-7 (Fzd7) (Xenopus); assay: confocal imaging of mVenus fluorescence on receptor-expressing cells in embryos; mRNA of mV-Wnt6 or secreted mVenus (500 pg) and Fzd7 mRNA (with mRFP) injected into different blastomeres of Xenopus embryos at the four-cell stage; fixed at st.10.5; mVenus intensity compared between Fzd7-expressing and neighbouring cells
[2] = target: dominant-negative Fzd7 with mouse IgG transmembrane sequence (dnFzd7-TM) (Xenopus | mouse); assay: confocal imaging of mVenus fluorescence on receptor-expressing cells in embryos; mV-Wnt6 mRNA and TCF-dnFzd7-TM plasmid (with mRFP mRNA) injected into different blastomeres of Xenopus embryos at the four-cell stage; mVenus intensity on the cell membrane of mRFP-positive and mRFP-negative cells compared

B1: mVenus-tagged Wnt6 (N-terminally tagged Wnt6) (ligand, UniProt P31287 1-129)
chain: QECKCHGLSGSCTFTTCWKKMPHFREVGDRLLERFNGAFKVMGGNDGKTIIPVGHNIKPPDKQDLIYSAESPDFCQANRKTGSPGTRGRVCNSTALDVGGCDLLCCGRGQREETVVVEENCLCRFHWCC
binding [1]: binds | binding [2]: binds
